ChEMBL document CHEMBL1821589, “Synthesis and structure-activity relationship of 1- and 2-substituted-1,2,3-triazole letrozole-based analogues as aromatase inhibitors” (Eur J Med Chem, 2011)
pIC50: −log10 of the molar value.

Target: T1, Aromatase (Homo sapiens, UniProt P11511)
T1 sequence (P11511 whole entry): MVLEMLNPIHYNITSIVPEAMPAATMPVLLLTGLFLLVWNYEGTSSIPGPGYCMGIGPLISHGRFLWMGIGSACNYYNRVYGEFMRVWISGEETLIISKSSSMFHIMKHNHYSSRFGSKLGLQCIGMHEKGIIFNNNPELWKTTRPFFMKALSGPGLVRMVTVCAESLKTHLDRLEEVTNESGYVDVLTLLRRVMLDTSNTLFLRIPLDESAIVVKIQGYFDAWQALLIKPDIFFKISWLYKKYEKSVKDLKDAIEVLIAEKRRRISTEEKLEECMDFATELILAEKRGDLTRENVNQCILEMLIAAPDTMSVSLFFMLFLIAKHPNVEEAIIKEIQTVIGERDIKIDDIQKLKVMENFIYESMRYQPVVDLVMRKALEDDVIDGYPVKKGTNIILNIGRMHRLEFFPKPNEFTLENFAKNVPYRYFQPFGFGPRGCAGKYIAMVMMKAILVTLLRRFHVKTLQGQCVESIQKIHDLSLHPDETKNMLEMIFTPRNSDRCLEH
Test: Inhibition of aromatase using 7-methoxy-4-trifluoromethyl coumarin as substrate after 30 mins by fluorescence-based colorimetric analysis

| pIC50 | Compound |
| --- | --- |
| 8.15 | N#Cc1ccc(Cn2ccnc2)cc1 |
| 8.10 | N#Cc1ccc(C(c2ccc(C#N)cc2)n2ccnn2)cc1 |
